From paper PMC6819556
No constants are given. Whether binding was seen depends on the method and setting. Binding seen in cells or lysates may run through a third protein. Some binding calls cover weakened binding; strength is not graded here.

The chains behind the UniProt entries cited, without tags or fusion partners.
UniProt P35222: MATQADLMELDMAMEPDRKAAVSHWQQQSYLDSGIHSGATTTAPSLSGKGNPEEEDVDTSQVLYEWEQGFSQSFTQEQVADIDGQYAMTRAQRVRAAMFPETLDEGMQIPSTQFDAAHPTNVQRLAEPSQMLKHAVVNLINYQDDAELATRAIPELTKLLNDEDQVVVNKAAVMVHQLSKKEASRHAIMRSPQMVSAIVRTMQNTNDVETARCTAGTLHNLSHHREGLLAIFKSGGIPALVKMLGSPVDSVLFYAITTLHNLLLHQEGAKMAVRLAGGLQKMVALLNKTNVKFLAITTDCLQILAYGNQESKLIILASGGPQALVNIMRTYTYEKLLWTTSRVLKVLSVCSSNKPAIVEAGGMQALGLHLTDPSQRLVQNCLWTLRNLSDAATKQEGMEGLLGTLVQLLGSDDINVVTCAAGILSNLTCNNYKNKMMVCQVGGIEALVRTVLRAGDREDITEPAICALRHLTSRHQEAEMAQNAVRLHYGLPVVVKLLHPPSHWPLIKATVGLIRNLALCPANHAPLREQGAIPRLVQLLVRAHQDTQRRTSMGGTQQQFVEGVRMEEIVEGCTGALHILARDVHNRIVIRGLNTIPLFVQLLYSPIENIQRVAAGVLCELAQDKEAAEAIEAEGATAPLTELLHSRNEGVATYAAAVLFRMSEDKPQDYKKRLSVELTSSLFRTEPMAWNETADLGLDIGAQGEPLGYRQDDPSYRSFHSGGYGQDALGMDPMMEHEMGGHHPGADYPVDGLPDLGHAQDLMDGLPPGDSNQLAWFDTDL
UniProt Q9UJU2: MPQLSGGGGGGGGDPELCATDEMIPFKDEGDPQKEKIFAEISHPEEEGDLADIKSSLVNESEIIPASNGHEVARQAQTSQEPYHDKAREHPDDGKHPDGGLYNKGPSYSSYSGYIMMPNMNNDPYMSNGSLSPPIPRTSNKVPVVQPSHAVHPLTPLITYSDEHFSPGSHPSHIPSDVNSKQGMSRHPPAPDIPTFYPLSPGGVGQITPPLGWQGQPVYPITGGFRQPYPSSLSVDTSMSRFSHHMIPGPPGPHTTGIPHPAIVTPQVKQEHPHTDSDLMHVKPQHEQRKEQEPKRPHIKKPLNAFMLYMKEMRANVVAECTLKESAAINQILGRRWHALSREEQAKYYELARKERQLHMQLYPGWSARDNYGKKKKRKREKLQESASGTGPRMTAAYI
UniProt Q9Y265: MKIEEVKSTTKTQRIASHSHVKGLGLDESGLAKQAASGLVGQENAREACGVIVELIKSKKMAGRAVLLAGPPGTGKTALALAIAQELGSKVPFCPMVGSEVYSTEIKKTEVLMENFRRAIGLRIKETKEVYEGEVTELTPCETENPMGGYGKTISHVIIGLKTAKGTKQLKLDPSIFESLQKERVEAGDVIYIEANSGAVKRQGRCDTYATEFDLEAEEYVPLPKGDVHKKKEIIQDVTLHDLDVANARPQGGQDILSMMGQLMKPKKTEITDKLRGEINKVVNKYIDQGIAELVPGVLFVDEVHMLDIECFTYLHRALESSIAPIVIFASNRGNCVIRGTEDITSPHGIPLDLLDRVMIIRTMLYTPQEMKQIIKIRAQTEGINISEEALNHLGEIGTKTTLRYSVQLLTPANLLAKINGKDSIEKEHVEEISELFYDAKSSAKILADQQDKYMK

Legend:
[1] = target: β-catenin (human (endogenous in MG63)) (UniProt P35222); assay: co-IP; MG63 cells stably transfected (vector, pre-miR-370-3p, pre-miR-370-3p + RUVBL1; shcircMYO10, shcircMYO10 + miR-370-3p sponge or RUVBL1); RIPA lysates incubated with anti-β-catenin or anti-LEF1 at 4 °C overnight, Protein A/G agarose 2-4 h, western blot with anti-RUVBL1 from a different …
[2] = target: lymphoid enhancer factor-1 (LEF1) (human (endogenous in MG63)) (UniProt Q9UJU2); assay: as above

binding [1]: binds | binding [2]: binds
Substance: RUVBL1 (from UniProt Q9Y265 1-456)
